PMC6717914
No constants are given. Whether binding was seen depends on the method and setting. In cells and extracts the contact can be indirect. Some entries that bind do so weakly or less than the wild type. Tags and fused reporters may be left off the sequences shown.

Protein sequences, listed by entry. Tags and fused reporters are not part of them.
UniProt P49597: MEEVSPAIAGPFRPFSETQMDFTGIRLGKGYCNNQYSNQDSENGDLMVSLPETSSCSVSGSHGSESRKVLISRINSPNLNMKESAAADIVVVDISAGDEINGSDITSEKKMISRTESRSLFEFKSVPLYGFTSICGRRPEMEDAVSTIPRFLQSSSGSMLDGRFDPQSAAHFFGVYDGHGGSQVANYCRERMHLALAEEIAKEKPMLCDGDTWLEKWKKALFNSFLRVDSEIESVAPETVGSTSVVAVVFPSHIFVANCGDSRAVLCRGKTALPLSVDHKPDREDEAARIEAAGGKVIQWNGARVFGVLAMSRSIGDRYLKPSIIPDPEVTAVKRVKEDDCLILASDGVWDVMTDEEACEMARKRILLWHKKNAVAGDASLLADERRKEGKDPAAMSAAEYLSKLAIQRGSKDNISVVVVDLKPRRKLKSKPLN

Molecular target: ABI1 tagged by mCherry fluorophore (Arabidopsis) (UniProt P49597)
Assay: FRET or BRET; FRET-FLIM as competition: GFP:SnRK2 and mCherry:ABI1 with co-expressed RCAR1 or RCAR14 in N. benthamiana leaves, without or with exogenous ABA sprayed 2 h before microscopy (up to 0.1 mM)

Row | binding | Binder
1 | binds | SnRK2.4 as GFP fusion protein (enzyme, UniProt P43291 1-363) MDKYELVKDIGAGNFGVARLMKVKNSKELVAMKYIERGPKIDENVAREIINHRSLRHPNIIRFKEVVLTPTHLAIAMEYAAGGELFERICSAGRFSEDEARYFFQQLISGVSYCHAMQICHRDLKLENTLLDGSPAPRLKICDFGYSKSSLLHSRPKSTVGTPAYIAPEVLSRREYDGKMADVWSCGVTLYVMLVGAYPFEDQEDPKNFRKTIQKIMAVQYKIPDYVHISQDCKNLLSRIFVANSLKRITIAEIKKHSWFLKNLPRELTETAQAAYFKKENPTFSLQTVEEIMKIVADAKTPPPVSRSIGGFGWGGNGDADGKEEDAEDVEEEEEEVEEEEDDEDEYDKTVKEVHASGEVRIS
2 | binds | RCAR1 (receptor, UniProt Q84MC7 1-187) MMDGVEGGTAMYGGLETVQYVRTHHQHLCRENQCTSALVKHIKAPLHLVWSLVRRFDQPQKYKPFVSRCTVIGDPEIGSLREVNVKSGLPATTSTERLELLDDEEHILGIKIIGGDHRLKNYSSILTVHPEIIEGRAGTMVIESFVVDVPQGNTKDETCYFVEALIRCNLKSLADVSERLASQDITQ
